The results in this text go back to publication PMC6320802.

The chains behind the UniProt entries cited, without tags or fusion partners.
UniProt Q3B7U9: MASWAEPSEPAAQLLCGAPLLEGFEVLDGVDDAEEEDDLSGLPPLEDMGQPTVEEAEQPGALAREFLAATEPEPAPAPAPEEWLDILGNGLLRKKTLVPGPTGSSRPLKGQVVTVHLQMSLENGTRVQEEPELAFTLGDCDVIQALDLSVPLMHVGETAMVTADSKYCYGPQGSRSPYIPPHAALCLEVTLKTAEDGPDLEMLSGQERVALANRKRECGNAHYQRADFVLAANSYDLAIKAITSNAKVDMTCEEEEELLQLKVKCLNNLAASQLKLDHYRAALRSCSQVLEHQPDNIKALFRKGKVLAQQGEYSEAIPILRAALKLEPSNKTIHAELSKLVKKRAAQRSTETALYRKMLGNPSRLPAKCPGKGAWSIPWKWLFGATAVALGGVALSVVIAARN
UniProt P35524: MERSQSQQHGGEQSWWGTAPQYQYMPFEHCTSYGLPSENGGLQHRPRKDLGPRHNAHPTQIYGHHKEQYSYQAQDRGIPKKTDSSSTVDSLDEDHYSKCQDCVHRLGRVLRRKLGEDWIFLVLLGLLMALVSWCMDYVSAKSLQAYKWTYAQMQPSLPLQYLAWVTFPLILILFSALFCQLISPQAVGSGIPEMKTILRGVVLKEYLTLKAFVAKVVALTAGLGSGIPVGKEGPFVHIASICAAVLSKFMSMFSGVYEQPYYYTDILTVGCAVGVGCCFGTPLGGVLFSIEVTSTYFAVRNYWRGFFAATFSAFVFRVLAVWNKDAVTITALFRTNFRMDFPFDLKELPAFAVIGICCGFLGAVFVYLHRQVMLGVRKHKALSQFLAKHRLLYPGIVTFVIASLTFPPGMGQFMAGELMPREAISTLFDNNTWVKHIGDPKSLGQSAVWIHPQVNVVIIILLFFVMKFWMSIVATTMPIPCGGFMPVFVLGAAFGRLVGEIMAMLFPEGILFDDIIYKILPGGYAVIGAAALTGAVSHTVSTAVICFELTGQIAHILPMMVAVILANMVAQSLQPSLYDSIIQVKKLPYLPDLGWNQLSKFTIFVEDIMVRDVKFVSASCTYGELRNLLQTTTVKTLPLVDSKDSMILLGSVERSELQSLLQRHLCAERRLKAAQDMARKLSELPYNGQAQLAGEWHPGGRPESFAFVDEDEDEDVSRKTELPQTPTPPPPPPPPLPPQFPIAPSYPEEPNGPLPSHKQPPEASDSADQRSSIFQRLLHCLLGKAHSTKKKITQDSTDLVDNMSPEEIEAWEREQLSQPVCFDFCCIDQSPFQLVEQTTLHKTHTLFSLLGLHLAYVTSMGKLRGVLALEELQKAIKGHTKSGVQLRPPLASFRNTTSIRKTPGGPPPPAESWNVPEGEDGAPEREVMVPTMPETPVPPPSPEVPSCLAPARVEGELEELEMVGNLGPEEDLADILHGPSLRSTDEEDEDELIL

Assay [1] concerns the target FK506-binding protein 8 (FKBP8), endogenous, rat skeletal muscle (rat (endogenous in skeletal muscle)) (UniProt Q3B7U9). The assay can be described thus: co-IP; rat skeletal muscle lysates; immunoprecipitation with anti-CLC-1 (Fig. 5D) or anti-FKBP8 (Fig. 5E) antibody, then immunoblotting; rabbit IgG as specificity control; input about 10% of total protein.
The target of assay [2] is CLC-1 chloride channel, endogenous, rat skeletal muscle (rat (endogenous in skeletal muscle)) (UniProt P35524). Described as above.

These are yes or no findings as the source states them, for the method shown. In cells and extracts the contact can be indirect. Some results given as binding are weak or reduced against the parent protein; the word gives no strength.

In the case of “CLC-1 chloride channel, endogenous, rat skeletal muscle (from UniProt P35524 1-994)”, in assay [1], the binding result is “binds”.
As for “FK506-binding protein 8 (FKBP8), endogenous, rat skeletal muscle (from UniProt Q3B7U9 1-403)”, in assay [2], the binding entry is given as “binds”.
